Two compounds from publication PMC10569044, “Methylation and Demethylation of Emerging Contaminants Changed Bioaccumulation and Acute Toxicity in Daphnia magna” (Environmental Science & Technology, 2023) can be followed below.

The nature of one data set: in vivo. To be noted: Daphnia magna. The method, then: Preliminary tests were conducted for each target compound at widely spaced concentrations to identify the concentration range for deriving an accurate dose–response curve. The stock solutions of individual test compounds were prepared in methanol and diluted with 10 mL of aerated AFW to different concentrations in 20 mL glass vials. The methanol volume was set to 100 μL in each vial as the solvent carrier, and a control group containing 100 μL of methanol without the target compound was used as the carrier solvent control. Each test included at least five concentration levels, and the concentrations of test compounds in the medium were experimentally measured (SI, Table S1). Each treatment included four replicates. […] The obtained dose–response data were fitted to the Boltzmann equation:[24] [drawing 1] 1 where C is the measured concentration of the test compound.

Converted amounts (≈) assume the structure as drawn.

In general, LC50 refers to the concentration that kills 50% of the test population. A high value points to lower toxicity. The compound `CN1C(=O)CN=C(c2ccccc2)c2cc(Cl)ccc21` [diazepam, reference compound] returned a median lethal concentration (LC50) at 48 h in the data set “in vivo” of 3 ± 0.3 µg/mL (≈ 10.5 µM). Besides, the “ku (uptake rate constant)” value in the data set on D. magna (D. magna, 24 h uptake phase) came to 68.3 ± 5 mL/min/kg. For the same compound, in the data set on D. magna (end of uptake phase, 24 h, 1 mg L^–1 nominal), the “concentration in D. magna” value was 7599.7 ± 1470.3 ng g^–1 (w.w.).
As to `COc1ccc2cc([C@H](C)C(=O)O)ccc2c1` [naproxen, reference compound], the LC50 at 48 h in “in vivo” (other: waterborne exposure in the test medium) came to 32.1 ± 4.9 µg/mL (≈ 139 µM).
